Measurements reported in PubChem BioAssay AID1259308 (NCATS, 2017).
The deposit covers about 59,000 reagents; below is a random part of them. Of all reagents, about 1,510 (2.6%) were called active. 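Calls use total luciferase alone and ignore viability, so some active siRNAs may act by altering cell number.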

Screen: 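Candidate targets for better recombinant protein yield in mammalian cells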 (primary screen)
Cell system: human HEK293 embryonic kidney cells stably expressing firefly luciferase (HEK-CMV-Luc2-Hygro)
Reagents: single siRNA against human genes, 0.8 pmol siRNA per well
Time to read-out: 72 h
Detection: 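Luciferase light (ONE-Glo) measured on one replicate plate set and viability (CellTiter-Glo) on the other, scaled to a negative control siRNA, with robust z-scores and luciferase per cell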
Scale: total luciferase, z-score and total luciferase, % of control: higher = more reporter protein produced; luciferase per cell, z-score: higher = more reporter output per viable cell; viable cells, % of control: higher = more viable cells
Call rule: 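An siRNA counts as active if its total luciferase robust z-score exceeds 3; genes with two or more such siRNAs out of three were retested with fresh siRNAs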
Meaning of the calls: active = raised luciferase; inactive = no rise

gene symbol | PubChem SID | total luciferase, z-score | total luciferase, % of control | luciferase per cell, z-score | viable cells, % of control | outcome
SKAP1 | SID160720465 | 0.825 | 98.3 | 1.43 | 75.4 | inactive
SKAP1 | SID160720466 | -0.513 | 71.7 | -0.605 | 94 | inactive
SKAP1 | SID160720467 | -0.0447 | 81 | -0.709 | 109 | inactive
OR6B3 | SID160759000 | 1.57 | 113 | 1.07 | 95.2 | inactive
OR6B3 | SID160759001 | 0.996 | 102 | 0.551 | 98.3 | inactive
OR6B3 | SID160759002 | 0.727 | 96.3 | -0.186 | 113 | inactive
RAB11FIP2 | SID160731852 | -0.325 | 75.4 | -0.711 | 102 | inactive
RAB11FIP2 | SID160731862 | -0.975 | 62.5 | -1.19 | 95.4 | inactive
RAB11FIP2 | SID160731870 | 2.23 | 126 | 1.73 | 89.3 | inactive
LIX1 | SID160732622 | 1.09 | 104 | 0.705 | 96.1 | inactive
LIX1 | SID160760260 | 0.871 | 99.2 | 0.753 | 90.9 | inactive
LIX1 | SID160760261 | 2.21 | 126 | 2.73 | 68.6 | inactive
HECTD1 | SID160737071 | -0.598 | 70 | -0.809 | 96.8 | inactive
HECTD1 | SID160737072 | -0.991 | 62.2 | -1.57 | 105 | inactive
HECTD1 | SID160737073 | -0.323 | 75.5 | -0.633 | 99.6 | inactive
OR52K2 | SID160755765 | 0.34 | 88.6 | 0.207 | 93.8 | inactive
OR52K2 | SID160755766 | -0.878 | 64.4 | -0.621 | 84.8 | inactive
OR52K2 | SID160755767 | -0.798 | 66 | -0.522 | 84.6 | inactive
ATP11B | SID160735700 | -0.0059 | 81.8 | 0.765 | 74.7 | inactive
ATP11B | SID160735701 | 0.132 | 84.5 | -0.524 | 108 | inactive
ATP11B | SID160735702 | 1.29 | 108 | 0.709 | 99.7 | inactive
MEX3D | SID160766821 | -3.56 | 11 | -7.76 | 95 | inactive
MEX3D | SID160766822 | -0.0377 | 81.1 | 0.284 | 84.1 | inactive
MEX3D | SID160766823 | -0.117 | 79.6 | -0.0136 | 89.2 | inactive
RALBP1 | SID160729543 | 1.33 | 108 | 2.21 | 67.7 | inactive
RALBP1 | SID160729544 | 0.795 | 97.7 | 0.655 | 91.9 | inactive
RALBP1 | SID160729545 | 0.922 | 100 | 0.828 | 90.1 | inactive
CC2D1A | SID160733560 | -0.0629 | 80.6 | -0.738 | 109 | inactive
CC2D1A | SID160742350 | 2.33 | 128 | 1.55 | 95.3 | inactive
CC2D1A | SID160742351 | 0.68 | 95.4 | 0.151 | 102 | inactive
ZNF846 | SID160759983 | 1.79 | 117 | 1.73 | 83.1 | inactive
ZNF846 | SID160759984 | 0.0457 | 82.8 | 0.12 | 89.6 | inactive
ZNF846 | SID160759985 | 1.85 | 119 | 2.63 | 66.4 | inactive
CDC50A | SID160744271 | -0.176 | 78.4 | -0.113 | 90.2 | inactive
CDC50A | SID160744272 | -0.369 | 74.6 | 0.199 | 79.1 | inactive
CDC50A | SID160744273 | 0.687 | 95.5 | 0.236 | 100 | inactive
SNX14 | SID160745861 | 0.0532 | 82.9 | -0.201 | 97.7 | inactive
SNX14 | SID160745862 | -0.0434 | 81 | 0.514 | 79.1 | inactive
SNX14 | SID160745863 | -0.178 | 78.4 | 0.0568 | 86.3 | inactive

Look-ups from the entries so far.
For “outcome”, SKAP1 [SID160720466] is entered as inactive
For “total luciferase, % of control”, RALBP1 [SID160729543] shows 108
OR52K2 [SID160755767], viable cells, % of control: 84.6
Under “viable cells, % of control”, LIX1 [SID160760260] reads 90.9
OR6B3 [SID160759002], total luciferase, % of control: 96.3
